Reference: article PMC6718988, “Bioactivity and Bactericidal Mechanism of Histidine-Rich β-Hairpin Peptide Against Gram-Negative Bacteria” (International Journal of Molecular Sciences, 2019)
Where a SMILES comes first, the peptide text is derived from it. [ ]: non-standard residue; d: D form.

Tested on: bacterial cells versus human erythrocytes
Details: for TI(−), therapeutic index / TI(+), therapeutic index / TI(+,−), therapeutic index: MHC / GM of MIC, 256 μM used for >128; for TI(−), therapeutic index: Gram-negative; for TI(+), therapeutic index: Gram-positive; for TI(+,−), therapeutic index: all strains

## N=C(N)NCCC[C@H](NC(=O)[C@H](CCCNC(=N)N)NC(=O)[C@H](Cc1ccccc1)NC(=O)[C@H](Cc1c[nH]cn1)NC(=O)[C@H](Cc1ccccc1)NC(=O)[C@H](Cc1c[nH]cn1)NC(=O)[C@H](Cc1ccccc1)NC(=O)CNC(=O)[C@H]1CCCN1C(=O)[C@H](Cc1ccccc1)NC(=O)[C@H](Cc1c[nH]cn1)NC(=O)[C@H](Cc1ccccc1)NC(=O)[C@H](Cc1c[nH]cn1)NC(=O)[C@H](Cc1ccccc1)NC(=O)[C@H](CCCNC(=N)N)NC(=O)[C@@H](N)CCCNC(=N)N)C(N)=O [HF2] (H-RRFHFHF[dP]GFHFHFRR-NH2; N-terminus assumed)
  TI(−), therapeutic index: 2.00
  TI(+), therapeutic index: 1.59
  TI(+,−), therapeutic index: 1.85

## CC[C@H](C)[C@H](NC(=O)CNC(=O)[C@H]1CCCN1C(=O)[C@@H](NC(=O)[C@H](Cc1c[nH]cn1)NC(=O)[C@@H](NC(=O)[C@H](Cc1c[nH]cn1)NC(=O)[C@@H](NC(=O)[C@H](CCCNC(=N)N)NC(=O)[C@@H](N)CCCNC(=N)N)[C@@H](C)CC)[C@@H](C)CC)[C@@H](C)CC)C(=O)N[C@@H](Cc1c[nH]cn1)C(=O)N[C@H](C(=O)N[C@@H](Cc1c[nH]cn1)C(=O)N[C@H](C(=O)N[C@@H](CCCNC(=N)N)C(=O)N[C@@H](CCCNC(=N)N)C(N)=O)[C@@H](C)CC)[C@@H](C)CC [HI2] (H-RRIHIHI[dP]GIHIHIRR-NH2; N-terminus assumed)
  TI(−), therapeutic index: 5.04
  TI(+), therapeutic index: 1
  TI(+,−), therapeutic index: 2.94

## CC(C)[C@H](NC(=O)CNC(=O)[C@H]1CCCN1C(=O)[C@@H](NC(=O)[C@H](Cc1c[nH]cn1)NC(=O)[C@@H](NC(=O)[C@H](Cc1c[nH]cn1)NC(=O)[C@@H](NC(=O)[C@H](CCCNC(=N)N)NC(=O)[C@@H](N)CCCNC(=N)N)C(C)C)C(C)C)C(C)C)C(=O)N[C@@H](Cc1c[nH]cn1)C(=O)N[C@H](C(=O)N[C@@H](Cc1c[nH]cn1)C(=O)N[C@H](C(=O)N[C@@H](CCCNC(=N)N)C(=O)N[C@@H](CCCNC(=N)N)C(N)=O)C(C)C)C(C)C [HV2] (H-RRVHVHV[dP]GVHVHVRR-NH2; N-terminus assumed)
  TI(−), therapeutic index: 35.9
  TI(+), therapeutic index: 1
  TI(+,−), therapeutic index: 10.88
Ratio of TI(−) of HV2 to TI(−) of PG-1
  TI against Gram-negative bacteria relative to that of PG-1: 28 times

## N=C(N)NCCC[C@H](NC(=O)[C@H](CCCNC(=N)N)NC(=O)[C@H](Cc1c[nH]c2ccccc12)NC(=O)[C@H](Cc1c[nH]cn1)NC(=O)[C@H](Cc1c[nH]c2ccccc12)NC(=O)[C@H](Cc1c[nH]cn1)NC(=O)[C@H](Cc1c[nH]c2ccccc12)NC(=O)CNC(=O)[C@H]1CCCN1C(=O)[C@H](Cc1c[nH]c2ccccc12)NC(=O)[C@H](Cc1c[nH]cn1)NC(=O)[C@H](Cc1c[nH]c2ccccc12)NC(=O)[C@H](Cc1c[nH]cn1)NC(=O)[C@H](Cc1c[nH]c2ccccc12)NC(=O)[C@H](CCCNC(=N)N)NC(=O)[C@@H](N)CCCNC(=N)N)C(N)=O [HW2] (H-RRWHWHW[dP]GWHWHWRR-NH2; N-terminus assumed)
  TI(−), therapeutic index: 2.25
  TI(+), therapeutic index: 3.17
  TI(+,−), therapeutic index: 2.52

## RGGRLCYCRRFCVCVGR-NH2 [PG-1, Protegrin-1, reference compound]
  TI(−), therapeutic index: 1.26
  TI(+), therapeutic index: 0.79
  TI(+,−), therapeutic index: 1.08
